The subject of the test is HEK293T. Description: percent viability (nuclei count) relative to control; higher = more viable cells. The conditions noted are these: 10 µM; 24 h.

Where “and” joins values, the source holds several entries; their conditions need not be identical. Identical values can stand only once. The list shows a part of the results. This data set is noisy: repeats of one test often differ as much as different tests do.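 HEK293T cells were given each compound shortly before transfection with a reporter in which red mCherry is followed by the SARS-CoV-2 frameshift element and then GFP in the −1 frame, so GFP appears only after frameshifting.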

Take `c1ccc(C2CN3CCSC3=N2)cc1` (configuration not stated) [tetramisole]: the percent viability came out at 187%.

In the case of `CCCCC1(COC(=O)CCC(=O)O)C(=O)N(c2ccccc2)N(c2ccccc2)C1=O` [suxibuzone], the percent viability came to 161%.

Turning to `CN/C(=N\CCSCc1nc[nH]c1C)NC#N`, the percent viability amounted to 166%.

Regarding `CCCCc1ccc2[nH]c(NC(=O)OC)nc2c1` [parbendazole], the percent viability stood at 14.7%.

Regarding `CCCNCC(O)COc1ccccc1C(=O)CCc1ccccc1` (configuration not stated) [propafenone], the percent viability was 447% and 297%.

For the compound `O=P(O)(O)C(O)(Cc1cnc2ccccn12)P(=O)(O)O` [minodronic acid], the percent viability amounted to 206%.

As for `CO/N=C(\C(=O)N[C@@H]1C(=O)N2C(C(=O)OCOC(=O)C(C)(C)C)=C(/C=C\c3scnc3C)CS[C@H]12)c1csc(N)n1`, the percent viability is 192%.

Regarding `Cc1cc(CC(=O)O)c(C)n1-c1ccc(Cl)cc1` [clopirac], the percent viability stood at 190%.

On to `CO[C@H](C(=O)[C@@H](O)[C@@H](C)O)[C@@H]1Cc2cc3cc(O[C@H]4C[C@@H](O[C@H]5C[C@@H](O)[C@H](O)[C@@H](C)O5)[C@H](O)[C@@H](C)O4)c(C)c(O)c3c(O)c2C(=O)[C@H]1O[C@H]1C[C@@H](O[C@H]2C[C@@H](O[C@H]3C[C@](C)(O)[C@H](O)[C@@H](C)O3)[C@@H](O)[C@@H](C)O2)[C@H](O)[C@@H](C)O1` [Mithracin], for which the percent viability amounted to 18.2%.

In the case of `Cc1nc(Nc2ncc(C(=O)Nc3c(C)cccc3Cl)s2)cc(N2CCN(CCO)CC2)n1` [dasatinib], the percent viability was 8.12%.

As for `CCc1nc(N)nc(N)c1-c1ccc(Cl)cc1` [pyrimethamine], the percent viability turned out to be 193%.

Turning to `CC1=C(C)C(=O)C(C(CCCCCC(=O)O)c2ccccc2)=C(C)C1=O` (configuration not stated) [seratrodast], the percent viability is 137%.

The record behind these values is the supplement of paper PMC8256030.
